Assay results from publication PMC4863248.
Results are given in words; binding and its absence hold for the method and conditions named. Binding seen in cells or lysates may run through a third protein. Some results given as binding are weak or reduced against the parent protein; the word gives no strength.

Protein sequences, listed by entry. Tags and fused reporters are not part of them.
UniProt O53669: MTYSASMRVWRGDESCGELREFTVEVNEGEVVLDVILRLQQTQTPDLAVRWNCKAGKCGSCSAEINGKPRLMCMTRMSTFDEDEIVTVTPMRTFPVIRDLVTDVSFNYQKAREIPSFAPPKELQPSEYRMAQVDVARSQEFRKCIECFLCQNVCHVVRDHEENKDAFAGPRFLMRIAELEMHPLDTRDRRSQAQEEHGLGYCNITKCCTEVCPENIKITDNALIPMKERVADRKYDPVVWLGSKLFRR
UniProt P9WH23: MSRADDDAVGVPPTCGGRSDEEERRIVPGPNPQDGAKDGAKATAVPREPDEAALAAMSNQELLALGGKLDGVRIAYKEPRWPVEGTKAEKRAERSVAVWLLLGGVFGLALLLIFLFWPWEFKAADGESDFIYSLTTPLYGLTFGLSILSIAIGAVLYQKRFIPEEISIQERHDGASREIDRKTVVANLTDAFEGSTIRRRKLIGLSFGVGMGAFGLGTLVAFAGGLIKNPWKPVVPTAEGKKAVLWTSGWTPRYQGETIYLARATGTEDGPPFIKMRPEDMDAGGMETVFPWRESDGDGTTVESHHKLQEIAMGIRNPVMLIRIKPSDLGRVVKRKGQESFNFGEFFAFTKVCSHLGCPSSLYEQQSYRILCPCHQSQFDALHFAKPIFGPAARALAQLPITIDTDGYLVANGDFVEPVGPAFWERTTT
UniProt O53670: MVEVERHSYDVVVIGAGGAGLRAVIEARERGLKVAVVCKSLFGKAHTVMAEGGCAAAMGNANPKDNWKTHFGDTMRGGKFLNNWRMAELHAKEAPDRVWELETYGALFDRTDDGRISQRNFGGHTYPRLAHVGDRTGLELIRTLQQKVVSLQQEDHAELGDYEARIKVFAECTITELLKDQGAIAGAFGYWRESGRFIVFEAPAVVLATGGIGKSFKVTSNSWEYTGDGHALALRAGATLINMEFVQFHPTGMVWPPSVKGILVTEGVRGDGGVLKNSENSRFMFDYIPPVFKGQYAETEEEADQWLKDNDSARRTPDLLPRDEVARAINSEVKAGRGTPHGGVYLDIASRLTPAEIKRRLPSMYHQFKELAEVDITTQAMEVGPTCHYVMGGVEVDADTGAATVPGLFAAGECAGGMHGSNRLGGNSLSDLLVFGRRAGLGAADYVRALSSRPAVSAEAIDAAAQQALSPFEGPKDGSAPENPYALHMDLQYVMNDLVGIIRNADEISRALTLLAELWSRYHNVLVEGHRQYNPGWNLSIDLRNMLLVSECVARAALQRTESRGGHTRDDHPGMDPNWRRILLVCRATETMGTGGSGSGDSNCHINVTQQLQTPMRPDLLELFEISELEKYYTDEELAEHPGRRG
UniProt P9WIT5: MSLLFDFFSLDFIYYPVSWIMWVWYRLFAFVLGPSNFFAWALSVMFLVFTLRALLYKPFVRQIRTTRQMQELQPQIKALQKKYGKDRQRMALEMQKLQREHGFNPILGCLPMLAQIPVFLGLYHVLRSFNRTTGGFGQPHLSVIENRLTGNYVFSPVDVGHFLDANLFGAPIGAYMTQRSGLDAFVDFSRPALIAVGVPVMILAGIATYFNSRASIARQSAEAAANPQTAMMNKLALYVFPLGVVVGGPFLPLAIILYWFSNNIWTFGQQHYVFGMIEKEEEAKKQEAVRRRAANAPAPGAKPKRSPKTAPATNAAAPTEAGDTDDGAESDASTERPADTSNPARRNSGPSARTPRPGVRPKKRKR

How the values were obtained:
Assay in all cases: co-IP
[1] = target: cMyc-Rv0247c (putative succinate dehydrogenase subunit B1) (Mycobacterium tuberculosis) (UniProt O53669)
[2] = target: QcrA-FLAG (ubiquinol-cytochrome C reductase subunit QcrA, Rv2195) (Mycobacterium tuberculosis) (UniProt P9WH23)
[3] = target: Rv0248c-FLAG (putative succinate dehydrogenase subunit A1) (Mycobacterium tuberculosis) (UniProt O53670)
[4] = target: YidC of Mycobacterium tuberculosis (Rv3921c) (Mycobacterium tuberculosis) (UniProt P9WIT5)

With “YidC of Mycobacterium tuberculosis (Rv3921c) (from UniProt P9WIT5 1-366)” the binding [1] was “binds”, the binding [2] was “binds” and the binding [3] was “binds”.

In the case of “Rv0248c-FLAG (putative succinate dehydrogenase subunit A1) (from UniProt O53670 1-646)”, the binding [4] is reported as “binds”.

With “QcrA-FLAG (ubiquinol-cytochrome C reductase subunit QcrA, Rv2195) (from UniProt P9WH23 1-429)” the binding [4] was “binds”.

For “cMyc-Rv0247c (putative succinate dehydrogenase subunit B1) (from UniProt O53669 1-248)”, the binding [4] was “binds”.
